Data from the supplement of paper PMC10849652.
The list shows a part of the results.

Protein sequences, listed by entry. Tags and fused reporters are not part of them. Lines headed by an entry give the natural chain unless they say otherwise; changes in a name come on top.
UniProt Q6ZRS2, whole entry, looked up: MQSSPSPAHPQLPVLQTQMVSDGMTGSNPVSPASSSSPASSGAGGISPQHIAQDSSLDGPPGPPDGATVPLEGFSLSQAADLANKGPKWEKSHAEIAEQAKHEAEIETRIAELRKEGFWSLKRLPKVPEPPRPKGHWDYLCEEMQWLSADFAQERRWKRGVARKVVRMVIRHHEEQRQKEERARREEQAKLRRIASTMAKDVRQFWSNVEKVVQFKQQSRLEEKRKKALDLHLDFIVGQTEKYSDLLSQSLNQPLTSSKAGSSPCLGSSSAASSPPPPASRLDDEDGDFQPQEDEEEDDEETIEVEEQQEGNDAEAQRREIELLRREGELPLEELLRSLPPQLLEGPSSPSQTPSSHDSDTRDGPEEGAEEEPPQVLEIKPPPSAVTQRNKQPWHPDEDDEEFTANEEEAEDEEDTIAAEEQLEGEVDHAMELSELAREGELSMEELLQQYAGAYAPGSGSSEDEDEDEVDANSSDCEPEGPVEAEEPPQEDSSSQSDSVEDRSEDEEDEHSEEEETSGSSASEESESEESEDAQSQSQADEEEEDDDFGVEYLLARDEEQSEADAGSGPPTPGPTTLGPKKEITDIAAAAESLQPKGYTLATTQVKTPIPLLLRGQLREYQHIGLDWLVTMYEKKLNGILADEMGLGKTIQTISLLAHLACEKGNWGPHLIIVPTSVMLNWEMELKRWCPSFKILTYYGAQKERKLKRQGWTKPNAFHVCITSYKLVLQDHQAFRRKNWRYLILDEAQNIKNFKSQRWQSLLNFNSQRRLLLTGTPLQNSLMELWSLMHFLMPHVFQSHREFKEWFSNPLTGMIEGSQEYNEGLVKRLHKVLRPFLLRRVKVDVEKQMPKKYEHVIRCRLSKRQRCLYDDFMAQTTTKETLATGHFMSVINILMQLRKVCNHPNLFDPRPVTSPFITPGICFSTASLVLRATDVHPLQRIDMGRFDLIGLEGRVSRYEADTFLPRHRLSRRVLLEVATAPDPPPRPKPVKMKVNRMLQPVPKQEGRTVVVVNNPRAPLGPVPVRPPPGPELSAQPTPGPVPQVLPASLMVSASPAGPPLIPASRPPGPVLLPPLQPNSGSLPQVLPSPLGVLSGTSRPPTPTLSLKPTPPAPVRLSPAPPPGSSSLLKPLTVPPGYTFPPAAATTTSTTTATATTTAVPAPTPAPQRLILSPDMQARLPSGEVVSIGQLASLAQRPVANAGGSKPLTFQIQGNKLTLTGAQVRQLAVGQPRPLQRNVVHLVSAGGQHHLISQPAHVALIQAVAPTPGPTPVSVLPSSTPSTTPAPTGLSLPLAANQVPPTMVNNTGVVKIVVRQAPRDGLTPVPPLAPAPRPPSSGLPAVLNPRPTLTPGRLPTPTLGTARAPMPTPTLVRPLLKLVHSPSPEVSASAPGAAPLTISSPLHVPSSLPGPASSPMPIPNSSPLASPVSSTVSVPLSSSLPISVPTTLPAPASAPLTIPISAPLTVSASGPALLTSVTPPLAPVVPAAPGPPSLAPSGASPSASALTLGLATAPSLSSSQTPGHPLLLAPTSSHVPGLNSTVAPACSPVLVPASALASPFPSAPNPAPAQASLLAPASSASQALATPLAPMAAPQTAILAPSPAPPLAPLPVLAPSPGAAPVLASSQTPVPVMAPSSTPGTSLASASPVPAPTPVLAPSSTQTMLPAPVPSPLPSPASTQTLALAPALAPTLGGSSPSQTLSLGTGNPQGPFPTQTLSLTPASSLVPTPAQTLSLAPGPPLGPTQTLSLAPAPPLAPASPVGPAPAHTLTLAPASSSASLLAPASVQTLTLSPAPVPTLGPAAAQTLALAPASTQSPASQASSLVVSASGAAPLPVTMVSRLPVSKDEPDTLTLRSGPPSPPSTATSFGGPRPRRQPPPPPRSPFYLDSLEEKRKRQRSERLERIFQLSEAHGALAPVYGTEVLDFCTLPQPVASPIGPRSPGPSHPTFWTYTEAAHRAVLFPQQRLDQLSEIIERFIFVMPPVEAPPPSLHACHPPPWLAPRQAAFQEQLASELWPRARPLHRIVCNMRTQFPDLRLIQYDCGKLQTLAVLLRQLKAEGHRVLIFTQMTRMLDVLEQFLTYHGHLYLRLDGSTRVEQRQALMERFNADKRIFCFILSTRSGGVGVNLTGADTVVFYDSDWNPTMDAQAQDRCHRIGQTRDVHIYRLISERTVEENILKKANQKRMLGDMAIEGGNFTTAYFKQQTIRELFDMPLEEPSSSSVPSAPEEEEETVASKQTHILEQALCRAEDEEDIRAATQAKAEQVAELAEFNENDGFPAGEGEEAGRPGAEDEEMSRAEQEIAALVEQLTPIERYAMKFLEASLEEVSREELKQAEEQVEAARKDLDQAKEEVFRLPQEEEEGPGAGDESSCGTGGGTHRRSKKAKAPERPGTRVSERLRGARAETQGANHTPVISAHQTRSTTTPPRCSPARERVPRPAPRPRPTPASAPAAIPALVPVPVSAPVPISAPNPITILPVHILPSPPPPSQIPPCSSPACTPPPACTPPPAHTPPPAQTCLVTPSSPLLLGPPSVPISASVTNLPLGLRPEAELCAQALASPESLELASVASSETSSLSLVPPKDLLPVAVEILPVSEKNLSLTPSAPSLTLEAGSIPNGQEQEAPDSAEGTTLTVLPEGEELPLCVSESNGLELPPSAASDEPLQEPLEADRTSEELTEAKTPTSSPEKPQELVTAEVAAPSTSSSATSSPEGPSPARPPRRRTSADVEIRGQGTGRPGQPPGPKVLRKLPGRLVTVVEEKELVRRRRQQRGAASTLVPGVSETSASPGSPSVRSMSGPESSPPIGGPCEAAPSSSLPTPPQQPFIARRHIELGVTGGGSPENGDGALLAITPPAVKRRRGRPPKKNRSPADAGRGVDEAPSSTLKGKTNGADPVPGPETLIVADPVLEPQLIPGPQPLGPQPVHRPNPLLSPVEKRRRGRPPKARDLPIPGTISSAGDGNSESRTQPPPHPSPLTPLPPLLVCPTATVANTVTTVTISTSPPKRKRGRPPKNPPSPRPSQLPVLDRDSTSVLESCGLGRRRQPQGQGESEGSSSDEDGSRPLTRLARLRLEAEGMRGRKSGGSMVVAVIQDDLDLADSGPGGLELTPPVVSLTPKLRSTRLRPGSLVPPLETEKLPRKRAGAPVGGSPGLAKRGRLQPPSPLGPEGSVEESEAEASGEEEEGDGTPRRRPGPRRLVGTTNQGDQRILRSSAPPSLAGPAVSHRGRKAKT
UniProt Q16384, whole entry, looked up: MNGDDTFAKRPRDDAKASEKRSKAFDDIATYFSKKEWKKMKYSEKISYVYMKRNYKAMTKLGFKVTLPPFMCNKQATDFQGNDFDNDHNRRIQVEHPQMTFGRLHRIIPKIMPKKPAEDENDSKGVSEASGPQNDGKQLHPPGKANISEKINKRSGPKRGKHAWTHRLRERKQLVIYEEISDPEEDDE
UniProt Q15532, whole entry, looked up: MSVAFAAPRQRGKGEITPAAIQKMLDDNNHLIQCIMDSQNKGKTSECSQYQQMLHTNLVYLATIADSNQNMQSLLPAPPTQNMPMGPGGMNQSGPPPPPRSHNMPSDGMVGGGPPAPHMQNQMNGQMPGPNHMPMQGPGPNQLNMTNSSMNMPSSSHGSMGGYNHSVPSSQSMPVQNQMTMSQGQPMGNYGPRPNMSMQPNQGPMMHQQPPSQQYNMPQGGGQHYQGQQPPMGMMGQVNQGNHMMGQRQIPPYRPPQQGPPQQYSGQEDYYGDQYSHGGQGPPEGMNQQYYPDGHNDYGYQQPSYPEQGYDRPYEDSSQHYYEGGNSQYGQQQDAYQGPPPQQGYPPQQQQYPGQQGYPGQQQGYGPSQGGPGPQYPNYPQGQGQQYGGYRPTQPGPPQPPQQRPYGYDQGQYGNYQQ
UniProt Q11201: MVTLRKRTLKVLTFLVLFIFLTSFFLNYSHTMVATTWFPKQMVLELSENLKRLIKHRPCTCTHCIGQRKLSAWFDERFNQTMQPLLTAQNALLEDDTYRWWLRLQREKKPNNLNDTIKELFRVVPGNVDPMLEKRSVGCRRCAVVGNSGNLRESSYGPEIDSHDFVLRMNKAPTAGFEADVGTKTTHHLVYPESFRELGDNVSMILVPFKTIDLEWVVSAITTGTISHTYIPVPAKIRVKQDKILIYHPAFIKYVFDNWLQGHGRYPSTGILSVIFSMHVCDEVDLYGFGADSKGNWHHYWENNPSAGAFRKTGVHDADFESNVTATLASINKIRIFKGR
UniProt O94768: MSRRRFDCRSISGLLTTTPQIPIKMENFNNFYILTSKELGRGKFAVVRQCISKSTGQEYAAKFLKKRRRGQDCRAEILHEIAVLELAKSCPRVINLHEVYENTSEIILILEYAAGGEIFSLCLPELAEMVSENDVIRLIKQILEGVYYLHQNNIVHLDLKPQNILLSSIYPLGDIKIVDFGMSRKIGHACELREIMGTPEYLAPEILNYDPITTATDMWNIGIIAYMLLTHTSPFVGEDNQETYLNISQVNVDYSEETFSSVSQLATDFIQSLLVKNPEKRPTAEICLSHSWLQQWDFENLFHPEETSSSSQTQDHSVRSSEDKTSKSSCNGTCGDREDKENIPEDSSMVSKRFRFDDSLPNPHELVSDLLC
UniProt Q9Y365: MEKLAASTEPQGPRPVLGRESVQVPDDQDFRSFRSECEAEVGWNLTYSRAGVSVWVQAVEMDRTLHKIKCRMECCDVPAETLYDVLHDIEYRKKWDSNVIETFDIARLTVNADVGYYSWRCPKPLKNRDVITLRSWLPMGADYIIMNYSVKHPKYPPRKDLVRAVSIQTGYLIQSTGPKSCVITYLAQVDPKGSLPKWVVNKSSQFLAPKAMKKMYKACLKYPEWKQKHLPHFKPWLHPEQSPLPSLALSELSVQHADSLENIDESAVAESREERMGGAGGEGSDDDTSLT
UniProt P49842: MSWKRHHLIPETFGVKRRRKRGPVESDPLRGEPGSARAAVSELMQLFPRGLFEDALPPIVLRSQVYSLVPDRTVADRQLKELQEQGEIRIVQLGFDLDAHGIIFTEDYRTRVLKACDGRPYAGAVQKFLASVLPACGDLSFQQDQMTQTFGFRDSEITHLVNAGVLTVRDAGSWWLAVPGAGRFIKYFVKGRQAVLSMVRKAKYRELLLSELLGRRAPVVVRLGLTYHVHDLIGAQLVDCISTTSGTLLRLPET
UniProt Q9C0H9: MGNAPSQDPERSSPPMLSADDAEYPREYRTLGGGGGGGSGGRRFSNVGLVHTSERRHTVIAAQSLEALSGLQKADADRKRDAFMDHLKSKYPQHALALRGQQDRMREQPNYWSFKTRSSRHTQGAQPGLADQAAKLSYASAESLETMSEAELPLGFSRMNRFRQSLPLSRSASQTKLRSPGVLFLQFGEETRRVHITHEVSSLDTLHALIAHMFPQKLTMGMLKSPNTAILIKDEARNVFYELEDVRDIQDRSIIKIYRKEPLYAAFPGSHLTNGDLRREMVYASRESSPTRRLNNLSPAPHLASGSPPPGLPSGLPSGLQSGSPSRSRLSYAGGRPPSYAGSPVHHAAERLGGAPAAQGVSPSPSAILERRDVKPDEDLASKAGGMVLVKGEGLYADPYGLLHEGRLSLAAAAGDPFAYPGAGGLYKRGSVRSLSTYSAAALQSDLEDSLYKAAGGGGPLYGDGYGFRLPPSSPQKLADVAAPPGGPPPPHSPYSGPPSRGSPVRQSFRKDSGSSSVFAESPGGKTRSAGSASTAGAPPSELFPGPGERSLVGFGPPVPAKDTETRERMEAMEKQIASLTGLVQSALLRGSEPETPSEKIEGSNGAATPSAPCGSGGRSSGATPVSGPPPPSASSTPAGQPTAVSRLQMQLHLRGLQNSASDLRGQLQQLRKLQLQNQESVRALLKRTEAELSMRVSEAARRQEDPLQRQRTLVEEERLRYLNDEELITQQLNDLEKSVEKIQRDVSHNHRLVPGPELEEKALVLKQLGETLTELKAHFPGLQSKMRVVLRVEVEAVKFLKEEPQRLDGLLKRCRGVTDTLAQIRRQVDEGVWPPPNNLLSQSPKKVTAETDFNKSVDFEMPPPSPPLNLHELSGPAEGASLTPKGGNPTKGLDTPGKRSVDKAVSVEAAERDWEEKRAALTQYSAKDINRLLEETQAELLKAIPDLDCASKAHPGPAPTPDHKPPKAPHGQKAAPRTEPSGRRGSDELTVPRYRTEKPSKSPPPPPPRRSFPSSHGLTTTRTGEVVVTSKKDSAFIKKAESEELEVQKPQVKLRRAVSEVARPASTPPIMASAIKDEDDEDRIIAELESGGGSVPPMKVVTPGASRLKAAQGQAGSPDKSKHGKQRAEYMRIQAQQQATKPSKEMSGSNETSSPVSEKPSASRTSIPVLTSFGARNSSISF
UniProt Q56A73: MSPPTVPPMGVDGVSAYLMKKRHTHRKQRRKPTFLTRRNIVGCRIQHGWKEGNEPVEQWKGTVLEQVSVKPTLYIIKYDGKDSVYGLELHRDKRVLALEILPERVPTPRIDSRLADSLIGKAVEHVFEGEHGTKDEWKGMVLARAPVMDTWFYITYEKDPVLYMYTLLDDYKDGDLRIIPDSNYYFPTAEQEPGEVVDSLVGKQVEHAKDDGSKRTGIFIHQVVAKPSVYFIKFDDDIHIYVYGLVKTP

How the values were obtained:
Assay in all cases: log2 fold change, soluble protein after heating vs DMSO (PISA); higher = thermal stabilisation; K562 cells, 10 uM, 30 min; active = over 0.2 and 3.5 SD of the protein, either way, in both replicates (recomputed)
erlotinib = compound: C#Cc1cccc(Nc2ncnc3cc(OCCOC)c(OCCOC)cc23)c1 [erlotinib]
Method in brief: (§1)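 For each measurement, 10 μM compound was applied for 30 min to K562 cells at 2×10^6 cells/mL. Aliquots were heated for 3 min across 48°C-58°C, pooled, and extracted in PBS with 0.5% NP-40 at 4°C; the supernatant after 21,000xg for 90 min was soluble protein. This was quantified by TMTpro 16plex LC-MS/MS with channel sums equalised, and thermal stability was reported relative to control samples from duplicates, on a log2 fold-change scale.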

[1] = compound: C1=CC(=C(C=C1Cl)C2=NC3=NC=CN=C3C(=N2)NC4=CC=NC=C4)F
Method in brief: as §1

[2] = compound: C1=CC(=CC=C1C2=NC3=C(N2)C=C(C=C3)C(=O)N)OC4=CC=C(C=C4)Cl
Method in brief: as §1

[3] = compound: C1=CC2=NC=CN=C2C=C1/C=C/3\C(=O)NC(=O)S3
Method in brief: as §1

[4] = compound: C1=CC=C(C=C1)C2=NC(=C(N2)C3=CC=NC=C3)C4=CC(=C(C=C4)Cl)O
Method in brief: as §1

[5] = compound: C/C(=N\NC(=O)C1=CC(=CC=C1)S(=O)(=O)N2CCOCC2)/C3=C(C=CC(=C3)Cl)O
Method in brief: as §1

[6] = compound: C1=CC2=C(C=CC(=C2)/C=C\3/C(=O)NC(=NCC4=CC=CS4)S3)N=C1
Method in brief: as §1

[7] = compound: C1=CC=C2C(=C1)C3=NNC4=CC=CC(=C43)C2=O
Method in brief: as §1

[8] = compound: C1CCN(C1)C(=O)NC2=CC=CC(=C2)NC3=NC=C(C(=N3)NCCC4=CN=CN4)Br
Method in brief: as §1

[9] = compound: C1CN(CCC1(CC2=CC=C(C=C2)Cl)N)C3=NC=NC4=C3C=CN4
Method in brief: as §1

Measured: log2 fold change

SREBF1 isoform 4 (UniProt P36956)
inactive: erlotinib 0.034 | [1] 0.045 | [2] 0.001 | [3] 0.068

STC2 (UniProt O76061)
inactive: erlotinib -0.023 | [2] -0.052 | [3] 0.127 | [4] -0.214

SRBD1 (UniProt Q8N5C6)
inactive: [1] -0.055

SPTY2D1 (UniProt Q68D10)
inactive: [1] -0.02

SPATA33 isoform 2 (UniProt Q96N06)
inactive: erlotinib 0.04 | [5] 0.002 | [2] 0.012 | [6] -0.025 | [3] 0.078 | [4] -0.059 | [7] -0.015 | [8] -0.071 | [9] -0.1

SRD5A3 (UniProt Q9H8P0)
inactive: erlotinib 0.055 | [5] -0.111 | [2] 0.035 | [6] -0.031 | [3] 0.074 | [4] 0.286 | [7] -0.18

Fetched one by one from the entries so far (2):
SRD5A3 (UniProt Q9H8P0)
inactive: erlotinib 0.055 | [5] -0.111 | [2] 0.035 | [6] -0.031 | [3] 0.074 | [4] 0.286 | [7] -0.18

SPATA33 isoform 2 (UniProt Q96N06)
inactive: erlotinib 0.04 | [5] 0.002 | [2] 0.012 | [6] -0.025 | [3] 0.078 | [4] -0.059 | [7] -0.015 | [8] -0.071 | [9] -0.1

Following part:

SRCAP (UniProt Q6ZRS2)
inactive: erlotinib 0.039 | [2] 0.031 | [3] 0.117 | [4] -0.191 | [8] 0.059 | [9] -0.254

SSX1 (UniProt Q16384)
inactive: [5] -0.113 | [1] -0.302 | [6] -0.084 | [3] 0.087 | [7] 0.181

SPATS2L isoform 3 (UniProt Q9NUQ6)
inactive: [5] -0.314 | [1] -0.545 | [6] -0.05 | [7] -0.127

STIM2 isoform 2 (UniProt Q9P246)
inactive: erlotinib 0.012 | [5] 0.056 | [1] -0.134 | [2] 0.017 | [6] 0.126 | [7] 0.003 | [8] -0.175 | [9] -0.058

SS18 (UniProt Q15532)
inactive: erlotinib -0.084 | [5] -0.161 | [2] -0.06 | [6] 0.168 | [3] 0.167 | [4] 0.249 | [7] 0.038 | [8] -0.104 | [9] -0.129

SPPL3 (UniProt Q8TCT6)
inactive: erlotinib -0.008 | [2] 0.113

ST3GAL1 (UniProt Q11201)
inactive: [1] 0.031

STK17B (UniProt O94768)
inactive: erlotinib 0.128 | [2] 0.072 | [3] -0.169

SPATA31E1 (UniProt Q6ZUB1)
inactive: [5] -0.274 | [6] 0.394 | [3] 0.044 | [4] 0 | [7] -0.179

STARD10 (UniProt Q9Y365)
inactive: erlotinib 0.165 | [1] 0.185 | [2] 0.151

ST8SIA6 (UniProt P61647)
inactive: [5] -0.209 | [6] 0.413 | [3] 0 | [7] -0.007

SPRED2 (UniProt Q7Z698)
inactive: [5] 0.058 | [6] 0.026 | [7] 0

STK16 (UniProt O75716)
inactive: erlotinib -0.095 | [1] 0.168 | [2] 0.171

SQOR (UniProt Q9Y6N5)
inactive: erlotinib 0.042 | [1] -0.222 | [2] 0.134

SRGAP1 (UniProt Q7Z6B7)
inactive: [1] -0.044 | [3] -0.025 | [4] -0.049 | [8] -0.099 | [9] 0.03

STK19 (UniProt P49842)
inactive: [5] 0.14 | [6] 0.278 | [4] -0.174 | [7] -0.09

SRCIN1 (UniProt Q9C0H9)
inactive: erlotinib 0.004 | [5] 0.03 | [2] -0.019 | [6] -0.027 | [3] -0.009 | [4] -0.195 | [7] 0.029

SRXN1 (UniProt Q9BYN0)
inactive: [5] 0.335 | [1] 0.097 | [6] 0.036 | [3] 0.031 | [4] 0.004 | [7] -0.017 | [8] -0.021 | [9] 0.048

SREBF2 (UniProt Q12772)
inactive: erlotinib 0.044 | [1] 0.059 | [2] -0.065 | [3] -0.041

SPRED1 (UniProt Q7Z699)
inactive: [5] -0.074 | [1] 0.005 | [6] 0.041 | [4] -0.103 | [7] 0.019

SPATS2 (UniProt Q86XZ4)
inactive: erlotinib -0.126 | [2] -0.159

SSBP2 (UniProt P81877)
inactive: [1] 0.043 | [3] -0.067 | [4] -0.024

SPINT1 (UniProt O43278)
inactive: erlotinib 0.036 | [1] -0.046 | [2] -0.007 | [4] -0.152

SPICE1 (UniProt Q8N0Z3)
inactive: [3] -0.34

SPIN4 (UniProt Q56A73)
inactive: erlotinib -0.125 | [2] 0.116
